From paper PMC12670160, “A drug-repurposing screen of FDA- and EMA-approved drugs identifies two NF-κB inhibitors active against eumycetoma” (Journal of Antimicrobial Chemotherapy, 2025)
Counter-ions that a name gives are not always drawn. In all, about 5,300 compounds went through this assay and about 130 (2.5%) showed an effect of 50% or more. Some of the results follow.

system: M. mycetomatis strain mm55; details: primary screen, metabolic activity vs growth control; 96 h, 2 µM; inhibitor

| Compound | % viability [%] |
| --- | --- |
| Cn1c(=O)c2c(ncn2C)n(C)c1=O [ONC0003256, caffeine] | 77.94 |
| CCN1CCN(c2cc(-c3ccc(F)cc3)c3c(n2)CCCCCC3)CC1 [ONC0004632, blonanserin lonasen] | 79.97 |
| CCO/N=C(/C(=O)N[C@@H]1C(=O)N2C(C(=O)O)=C(Sc3nc(-c4cc[n+](C)cc4)cs3)CS[C@H]12)c1nsc(NP(=O)(O)O)n1 [ONC0002991, ceftarolinefosamil] | 80.17 |
| Cc1cc(CN)cc(C)c1NC(=O)c1ccc(-c2cc(Cl)ccc2Cl)o1 [ONC0001490, cym50358] | 73.53 |
| Cc1c(OCC(F)(F)F)ccnc1C[S+]([O-])c1nc2ccccc2[nH]1 (stereo not shown) [ONC0002455, lansoprazole] | 69.49 |
| CNCCCOc1cc(F)c(-c2c(Cl)nc3ncnn3c2N[C@@H](C)C(F)(F)F)c(F)c1 [ONC0002250, cevipabulin] | 113.6 |
| COc1ccc(NS(=O)(=O)c2ccc(N=Nc3ccc(O)c(C(=O)O)c3)cc2)nn1 [ONC0003399, salazodine] | 47.95 |
| Cc1ccc2c(c1)Cc1c(C(=O)NC3CCCCC3)nn(-c3ccc(Cl)cc3Cl)c1-2 [ONC0003630, gp2a] | 52.61 |
| O=C(O)c1ccc(S(=O)(=O)N(Cc2ccc(OC(F)(F)F)cc2)c2ncc(C(F)(F)F)cc2Cl)cc1 [ONC0001283, rq00203078] | 78.18 |
| c1ccc([C@@H]2C[C@H]2NC2CCNCC2)cc1 [ONC0003011, gsklsd1] | 91.17 |
| Cc1nnc2n1-c1sc(CCC(=O)N3CCOCC3)cc1C(c1ccccc1Cl)=NC2 [ONC0003000, apafant] | 64.39 |
| Fc1ccc(-c2cncc(CN3CCN(c4cccc5c4OCCO5)CC3)c2)cc1 [ONC0001790, adoprazine] | 89.4 |
| CC(C)(C)NCC(O)c1ccc(O)c(CO)c1 (stereo not shown) [ONC0000658, albuterol] | 133.9 |
| Cc1sc2c(c1C)C(c1ccc(Cl)cc1)=N[C@@H](CC(=O)Nc1ccc(OCCOCCOCCOCCNc3cccc4c3C(=O)N(C3CCC(=O)NC3=O)C4=O)cc1)c1nnc(C)n1-2 (stereo partly shown) [ONC0002091, arv825] | 72.49 |
| CC(C)N1CCN(c2ccc(OC[C@@H]3CO[C@@](Cn4cncn4)(c4ccc(Cl)cc4Cl)O3)cc2)CC1 [ONC0002390, terconazole] | 66.82 |
| CCS(=O)(=O)N1CCC([C@@H](C)n2c(C)c(C(=O)NCc3c(OC)cc(C)[nH]c3=O)c3ccccc32)CC1 [ONC0002050, cpi169] | 60.75 |
| Fc1ccc(CNc2ncnc3ccc(F)cc23)cc1 [ONC0002667, spautin1] | 68.76 |
| CCn1c(=O)n(C2=C(CO)CN(CC3CCCCCCC3)CC2)c2ccccc21 [ONC0003153, trap101] | 95.21 |
| Oc1ccc(C(O)CNCCCCCCNCC(O)c2ccc(O)c(O)c2)cc1O (stereo not shown) [ONC0004677, hexoprenaline sulphate] | 88.54 |
| CCc1c(C(=O)NCCc2ccc(N3CCCCC3)cc2)[nH]c2ccc(Cl)cc12 [ONC0004879, org 27569] | 111.9 |
| Nc1ncnc2c1ncn2[C@@H]1O[C@H](C[C@@H](N)CC[C@H](N)C(=O)O)[C@@H](O)[C@H]1O [ONC0004131, sinefungin] | 94.43 |

| Compound | % viability [%] |
| --- | --- |
| COc1ccccc1NC(=O)OCC1CCN(C(=O)OC(C)(C)C)CC1 [ONC0002504, gw542573x] | 75.06 |
| CN1CCN(c2ccc(C(=O)Nc3n[nH]c4ccc(Cc5cc(F)cc(F)c5)cc34)c(NC3CCOCC3)c2)CC1 [ONC0004424, entrectinib rxdx101] | 155.1 |
| Clc1ccc2c(NCCNc3ccnc4cc(Cl)ccc34)ccnc2c1 [ONC0002241, nsc5844] | 73.06 |
| CN1Cc2ccccc2[C@@H]2c3cccc4[nH]cc(c34)C[C@H]21 [ONC0000732, cy208243] | 63.23 |
| O=c1[nH]c([C@@H]2CCCN2)nc2c1oc1ccc(Cl)cc12 [ONC0001835, xl413 hydrochloride] | 97.05 |
| O=C(Nc1cccc(Cl)c1)Nc1ncc(CCNc2ncnc3ccsc23)s1 [ONC0000061, sns314 methanesulfonate] | 83.41 |
| Nc1nc(N)nc(-c2cc(Cl)ccc2Cl)n1 [ONC0001407, irsogladine] | 98.52 |
| CCN1CCCC1CNC(=O)c1cc(S(=O)(=O)CC)c(N)cc1OC (stereo not shown) [ONC0001538, amisulpride] | 104.1 |
| CC(C)(C)[C@@]1(O)CCN2C[C@@H]3c4ccccc4CCc4cccc(c43)[C@H]2C1 [ONC0002006, butaclamolhcl] | 90.12 |
| CCCS(=O)(=O)Nc1ccc(F)c(C(=O)c2c[nH]c3ncc(Cl)cc23)c1F [ONC0004747, plx4720] | 107.4 |
| CNC(=O)CN1CCC(Oc2cc3c(Nc4cccc(Cl)c4F)ncnc3cc2OC)CC1 [ONC0005004, azd8931] | 85.22 |
| Cc1cn(C[C@H](N)C(=O)O)c(=O)n(Cc2ccsc2C(=O)O)c1=O [ONC0001727, ubp310] | 134.9 |
| CC(=O)c1ccc2c(c1)[C@@H]1C=CC[C@@H]1[C@H](c1cc3c(cc1Br)OCO3)N2 [ONC0000232, g1] | 65.68 |
| c1cnc(NCc2ccc(CNc3ncccn3)cc2)nc1 [ONC0002000, msx122] | 83.13 |
| N[C@H](Cc1cc(I)c(Oc2ccc(O)c(I)c2)c(I)c1)C(=O)O [ONC0003830, liothyronine] | 90.31 |
| COc1cc(N)c(Cl)cc1C(=O)NC1CCN(Cc2ccccc2)CC1 [ONC0002349, clebopride] | 82.36 |
| S=P(N1CC1)(N1CC1)N1CC1 [ONC0003122, thiotepa] | 71.7 |
| CC12CCC(C(=O)N(CCCCN3CCN(c4ccccn4)CC3)C1=O)C2(C)C (stereo not shown) [ONC0003565, piricapiron] | 102.1 |
| c1ccc(C2(c3ccccc3)CC2=C2NCCN2)cc1 [ONC0005472, cibenzoline] | 97.66 |
| CNCCc1c[nH]cn1 [ONC0002580, nalphamethylhistaminedihydrochloride] | 77.02 |
| CCCCOc1ccc(OCCCN2CCOCC2)cc1 [ONC0000632, pramoxine hydrochloride] | 97.11 |

| Compound | % viability [%] |
| --- | --- |
| CCCC[C@H](C)C[C@H](O)/C=C/[C@H]1[C@H](O)CC(=O)[C@@H]1CCCC/C=C/C(=O)O [ONC0005482, limaprost] | 96.34 |
| CCCOc1ccc2nc(NC(=O)OC)[nH]c2c1 [ONC0002872, oxibendazole] | 89.15 |
| CC1(C)S[C@@H]2[C@H](/N=C/N3CCCCCC3)C(=O)N2[C@H]1C(=O)O [ONC0005484, amdinocillin] | 106.3 |
| CN1CCN(C(=O)CN[C@@H]2C[C@H]2c2ccc(OCc3ccccc3)cc2)CC1 [ONC0000424, rn1] | 85.6 |
| CC(=O)N[C@H]1[C@H]([C@H](O)[C@H](O)CO)O[C@](O)(C(=O)O)C[C@@H]1O [ONC0003418, nacetylneuraminic acid] | 74.29 |
| COc1cc(N2CCC(N3CCN(C)CC3)CC2)ccc1Nc1ncc(Cl)c(Nc2ccccc2S(=O)(=O)C(C)C)n1 [ONC0004374, tae684 nvptae684] | 132.9 |
| CC1CCc2cc(F)cc3c(=O)c(C(=O)O)cn1c23 (stereo not shown) [ONC0003194, flumequine] | 88.77 |
| O=C(NCC1CCCCN1)c1cc(OCC(F)(F)F)ccc1OCC(F)(F)F (stereo not shown) [ONC0001650, flecainide] | 77.98 |
| Nc1nccc(Oc2ccc(NC(=O)c3cn(COP(=O)(O)O)cc(-c4ccc(F)cc4)c3=O)cc2F)c1Cl [ONC0000759, scr1481b1] | 84.2 |
| CCC(CC)[C@H](NC(C)=O)[C@@H]1[C@H](O)[C@@H](C(=O)O)C[C@H]1NC(=N)N [ONC0004447, peramivir trihydrate] | 122.8 |
| CC(C)c1nc(CN(C)C(=O)N[C@H](C(=O)N[C@@H](Cc2ccccc2)C[C@H](O)[C@H](Cc2ccccc2)NC(=O)OCc2cncs2)C(C)C)cs1 [ONC0004602, ritonavir] | 66.72 |
| COc1cc2c(cc1OC)-c1cc3nc4ccccc4nc3n1C(C)(C)C2 [ONC0001489, ym90709] | 74.53 |
| COc1ccccc1OCCNCC(O)COc1cccc2[nH]c3ccccc3c12 (stereo not shown) [ONC0004229, carvedilol] | 59.96 |
| COc1ccc(CCCOC(Cn2ccnc2)c2ccc(OC)cc2)cc1 (stereo not shown) [ONC0000065, skf96365] | 143.6 |
| COc1ccc(C(C)=O)c(O)c1 [ONC0002736, paeonol peonol] | 74.65 |
| CC(C)N[C@H]1CCn2c(=O)[nH]c3cccc(c32)[C@@H]1O [ONC0003872, zilpaterol] | 87.84 |
| COc1ccc(-n2nc(C(N)=O)c3c2C(=O)N(c2ccc(N4CCCCC4=O)cc2)CC3)cc1 [ONC0005465, apixaban] | 93.64 |
| CC(C)[C@H]1CC[C@H](C(=O)N[C@H](Cc2ccccc2)C(=O)O)CC1 [ONC0004252, nateglinide] | 54.34 |
| COc1c(O)cc2c(c1O)[C@@H]1O[C@H](CO)[C@@H](O)[C@H](O)[C@H]1OC2=O [ONC0003213, bergenin] | 99.85 |

17 entries out of the list, arranged by molar mass, smallest number first.

| Compound | % viability [%] |
| --- | --- |
| CCCOc1ccc2nc(NC(=O)OC)[nH]c2c1 [ONC0002872, oxibendazole] | 89.15 |
| CC1CCc2cc(F)cc3c(=O)c(C(=O)O)cn1c23 (stereo not shown) [ONC0003194, flumequine] | 88.77 |
| CCCCOc1ccc(OCCCN2CCOCC2)cc1 [ONC0000632, pramoxine hydrochloride] | 97.11 |
| CC(=O)N[C@H]1[C@H]([C@H](O)[C@H](O)CO)O[C@](O)(C(=O)O)C[C@@H]1O [ONC0003418, nacetylneuraminic acid] | 74.29 |
| CC(C)[C@H]1CC[C@H](C(=O)N[C@H](Cc2ccccc2)C(=O)O)CC1 [ONC0004252, nateglinide] | 54.34 |
| CC1(C)S[C@@H]2[C@H](/N=C/N3CCCCCC3)C(=O)N2[C@H]1C(=O)O [ONC0005484, amdinocillin] | 106.3 |
| COc1c(O)cc2c(c1O)[C@@H]1O[C@H](CO)[C@@H](O)[C@H](O)[C@H]1OC2=O [ONC0003213, bergenin] | 99.85 |
| COc1cc2c(cc1OC)-c1cc3nc4ccccc4nc3n1C(C)(C)C2 [ONC0001489, ym90709] | 74.53 |
| COc1ccc(CCCOC(Cn2ccnc2)c2ccc(OC)cc2)cc1 (stereo not shown) [ONC0000065, skf96365] | 143.6 |
| CN1CCN(C(=O)CN[C@@H]2C[C@H]2c2ccc(OCc3ccccc3)cc2)CC1 [ONC0000424, rn1] | 85.6 |
| CCCC[C@H](C)C[C@H](O)/C=C/[C@H]1[C@H](O)CC(=O)[C@@H]1CCCC/C=C/C(=O)O [ONC0005482, limaprost] | 96.34 |
| COc1ccccc1OCCNCC(O)COc1cccc2[nH]c3ccccc3c12 (stereo not shown) [ONC0004229, carvedilol] | 59.96 |
| O=C(NCC1CCCCN1)c1cc(OCC(F)(F)F)ccc1OCC(F)(F)F (stereo not shown) [ONC0001650, flecainide] | 77.98 |
| COc1ccc(-n2nc(C(N)=O)c3c2C(=O)N(c2ccc(N4CCCCC4=O)cc2)CC3)cc1 [ONC0005465, apixaban] | 93.64 |
| Nc1nccc(Oc2ccc(NC(=O)c3cn(COP(=O)(O)O)cc(-c4ccc(F)cc4)c3=O)cc2F)c1Cl [ONC0000759, scr1481b1] | 84.2 |
| COc1cc(N2CCC(N3CCN(C)CC3)CC2)ccc1Nc1ncc(Cl)c(Nc2ccccc2S(=O)(=O)C(C)C)n1 [ONC0004374, tae684 nvptae684] | 132.9 |
| CC(C)c1nc(CN(C)C(=O)N[C@H](C(=O)N[C@@H](Cc2ccccc2)C[C@H](O)[C@H](Cc2ccccc2)NC(=O)OCc2cncs2)C(C)C)cs1 [ONC0004602, ritonavir] | 66.72 |
